In publication PMC5040251, “The Structure of Treponema pallidum Tp0751 (Pallilysin) Reveals a Non-canonical Lipocalin Fold That Mediates Adhesion to Extracellular Matrix Components and Interactions with Host Cells” (PLoS Pathogens, 2016):
No constants are given. Whether binding was seen depends on the method and setting. Binding can be weak; no strength is given.

B1: Tp0751 synthetic peptide p4 (peptide)
peptide: GGAAQTHTQPPVQTAMRIALWNRA
notes: Tp0751 (pallilysin), Treponema pallidum subsp. pallidum; its central four residues PVQT (98-101) are printed; also called peptide 4; source: synthetic peptide; not shown: His6, N-terminal, kept
B2: Tp0751 synthetic peptide p11 (peptide)
peptide: SIRRRLEVTFESHEVIHVRAVEDV
notes: Tp0751 (pallilysin), Treponema pallidum subsp. pallidum; shares its first 10 residues (with the arginine triplet) with p10; source: synthetic peptide; not shown: His6, N-terminal, kept
B3: Tp0751 synthetic peptide p10 (peptide)
peptide: RKTVSFLTRNTAISSIRRRLEVTF
notes: Tp0751 (pallilysin), Treponema pallidum subsp. pallidum; Its composition equals that of the printed scrambled peptide p10scr2; also called peptide 10; source: synthetic peptide; not shown: His6, N-terminal, kept
B4: Tp0751 synthetic peptide p6 (peptide)
peptide: QGALQHLLAGLWIQTEISPNSGDI
notes: Tp0751 (pallilysin), Treponema pallidum subsp. pallidum; its central four residues LWIQ (126-129) are printed; also called peptide 6; source: synthetic peptide; not shown: His6, N-terminal, kept

Target: fibronectin isolated from human plasma (human)
Test: ELISA; initial binding screen, single point: host protein immobilised in plate wells, His6-tagged synthetic peptide in solution; absorbance at 600 nm, three wells, two independent experiments; done as in refs 21, 22; both purified

**Q.** How did the binding turn out when B1 was run?
**A.** binds

**Q.** B2 was tested. Which binding did it give?
**A.** binds

**Q.** B3 was tested. Which binding did it give?
**A.** binds

**Q.** How did the binding turn out when B4 was run?
**A.** binds

**Q.** With FFDREHAEITFSRASVQEIFLVDS (peptide, UniProt O83732 144-167) [Tp0751 synthetic peptide p8] as the binder, how does the binding read?
**A.** no binding

Target: human collagen type IV (human)
Test: as above

**Q.** How did the binding turn out when B1 was run?
**A.** binds

**Q.** Which binding does the source give for B2 here?
**A.** binds

**Q.** B3 was tested. Which binding did it give?
**A.** binds

**Q.** Which binding does the source give for B4 here?
**A.** binds

**Q.** Which binding does the source give for FFDREHAEITFSRASVQEIFLVDS (peptide, UniProt O83732 144-167) [Tp0751 synthetic peptide p8] here?
**A.** no binding

Target: plasminogen-depleted human fibrinogen (human)
Test: as above

**Q.** B1 was tested. Which binding did it give?
**A.** binds

**Q.** B2 was tested. Which binding did it give?
**A.** binds

**Q.** B3 was tested. Which binding did it give?
**A.** binds

**Q.** With B4 as the binder, how does the binding read?
**A.** binds

**Q.** For FFDREHAEITFSRASVQEIFLVDS (peptide, UniProt O83732 144-167) [Tp0751 synthetic peptide p8], which binding is on record?
**A.** no binding
